According to patent US20240392024A1:
These are yes or no findings as the source states them, for the method shown. Some entries that bind do so weakly or less than the wild type.

Protein sequences, listed by entry. Tags and fused reporters are not part of them. Residues count along the entry.
UniProt P20333, residues 23-257: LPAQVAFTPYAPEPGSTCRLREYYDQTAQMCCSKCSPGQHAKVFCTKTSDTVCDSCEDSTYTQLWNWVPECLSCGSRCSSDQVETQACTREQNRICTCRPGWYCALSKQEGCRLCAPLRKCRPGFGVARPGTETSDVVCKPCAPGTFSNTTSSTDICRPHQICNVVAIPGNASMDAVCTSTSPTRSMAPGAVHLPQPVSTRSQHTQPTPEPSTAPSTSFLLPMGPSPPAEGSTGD

These binders were tested against recombinant human TNFR2 antigen (Kangdai, batch number A100114U) (human) (UniProt P20333) (assay: ELISA, coated recombinant human TNFR2).

binding | Binder
binds | anti-human TNFR2 mouse monoclonal antibody 27F6 (antibody, V domains shown) VH: EVQLQQSGTVLARPGASVKMSCKTSGYTFTSYWMHWVKQRPGQGLEWIGTIYPGNSDTSYNQKFKGKAKLTAVTSASTAYMELNSLTNEDSAVFYCTRENLLLRSYFFDYWGQGTTLTVSS VL: DIVMTQSPASLAVSLGQRATISCKASQSVDYDGDSYLNWYQQKPGQPPKLLIYAASNLPSGIPARFSGSGSGTDFTLNIHPVEEEDAATYYCQQSNEDPRTFGGGTKLEIK
binds | anti-human TNFR2 mouse monoclonal antibody 12E12 (antibody, V domains shown) VH: EVQLQQSGAELVKPGASVKLSCTVSGFNIKDFYIHWVKQRPEQGLEWIGRVDPEDGNTEYAPNFQDRATMTTDTSSNTAYLQLSSLTSVDTAVYYCSTWDGFSYFDYWGLGTTLTVSS VL: QAVVTQESALTTSPGETVTLTCRSSTGPVTTNNYANWVQEKPDHLFTGLIGGTNDRAPGVPARFSGSLIGDKTALTITGTQTEDEAVYFCALWYRNHWVFGGGTKLTVL
binds | anti-human TNFR2 mouse monoclonal antibody 18A2 (antibody, V domains shown) VH: DVQLQESGPGLVKPSQSLSLTCSVTGYSITSGYYWNWIRQFPGNKLEWMGYISYDGSNNYNPSLKKRISITRDTSKNQFFLKLNSVTTEDTATYYCTGGSGTSWGQGTLVTVSA VL: DIVMTQSHKFMSTSVGDRVSITCKASQDVTTGIAWYQQKPGQSPKLLIYSASNRFTGVPDRFTGSGSGTDFTFTISSVQAEDLAVYFCQQHYSTPFTFGSGTKLEIQ
binds | anti-human TNFR2 mouse monoclonal antibody 16D2 (antibody, V domains shown) VH: EVQLQQSEPELVKPGASVKIPCKASGYTFTDYNMDWVKQSHGKSLEWIGDINPNNGVTIYNQKFKGKATLTVDKSSSTAYMELRSLTSEDTAVYYCVILEYFDYWGQGTTLTVSS VL: DIVMTQSTSSMSVSLGDTVSITCHASQGISSNIGWLQQKPGKSFKGLIYHGTKLEDGVPSRFSGSGSGADYSLTISSLESEDFADYYCVQYAQFPRTFGGGTKLEIK
binds | anti-human TNFR2 mouse monoclonal antibody 7F2 (antibody, V domains shown) VH: QVTLKESGPGILQPSQTLSLTCSFSGFSLNTFGLGVGWIRQPSGKGLEWLTHIWWNDDKYYNPALKSRLTISRDTSENLVFLKIANVDTADTATYYCARIEGLRRFDYWGQGTTLTVSS VL: DIQMTQSPSSLSASLGGKVTITCKTSQDINKFIAWYQHKPGKGPRLLIHYTSTLQPGIPSRFSGSGSGRDYSFSISDLEPEDIATYYCLQYANLWAFGGGTKLEIK
binds | anti-human TNFR2 mouse monoclonal antibody 13F5 (antibody, V domains shown) VH: QVQLQQSGAELVRPGTSVKMSCKASGYTFTNYWIGWTKQRPGHGLEWIGDIFPGGDFTNYNEKFKGKATLTADKSSSTAYLQFSSLTSEDSAIYYCSRRRFTTIVAPGFDYWGQGTTLTVSS VL: QLVLTQSSSASFSLGASAKLTCTLSSQHSMYTIEWYQQQPLKPPKFVMELKKDGSHSTGDGIPDRFSGSSSGADRYLNISNIQPEDEAIYICGVGDTIKEQFVYVFGGGTEVTVL
binds | anti-human TNFR2 mouse monoclonal antibody 29A1 (antibody, V domains shown) VH: QVQLQQSGAEVVRPGASVTLSCKASGYTFSDYEMHWVKQTPVHGLEWIGAIDPETGDTAYNQKFKDKARVTADKSSSTAYMELRSLTSEDSAVYYCTRDIHYYGSSLSYFDYWGQGTTLTVSS VL: DIVMTQSQKFMSTSVGDRVSVTCKASQNVGTNVAWYQQKPGQSPKVMIYSASYRYSGAPDRFTGSGSGTDFTLTVNNVQSEDLAEYFCQQYKTYPYTFGGGTKLEIE
